# Measured values: PubChem BioAssay AID595 (National Center for Advancing Translational Sciences (NCATS), 2007)
# The whole screen tested about 71,000 compounds, of which about 310 (0.44%) were called active. Inconclusive results, whose numbers are uncertain, are shown with a selection of clear calls. Calls come from the whole dose curve; as a rule, active = well fitted curve in either direction with a large enough effect; inconclusive = small, poorly fitted or top-dose-only effect, or another doubt; inactive = flat fitted curve, though single readings scatter. Potencies of inconclusive entries are doubtful fits and often do not repeat.
# Test system: Hsp90 C-terminal peptide / TPR2A (Hop) interaction, human
# Assay: qHTS Assay for Disrupters of an Hsp90 Co-Chaperone Interaction
# Details: AlphaScreen TPR2A-His6 binding biotin-Hsp90 C-terminal peptide; activity change, negative = inhibition: at 57 µM (top of the series) unless noted
# Excerpt: NIH Chemical Genomics Center [NCGC]
# NIH Molecular Libraries Screening Centers Network [MLSCN]
# Hsp90 (heat shock protein 90) is the essential molecular chaperone and it accounts for 1-2% of all cytosolic proteins and is critical for the activity of diverse cellular proteins that are involved in a variety of cellular processes, including development, cell cycle, and steroid hormone signaling. Its client proteins include signaling kinases such as IGF1R, Akt, v-Src, Raf-1; regulators of cell survival such as Bcr-Abl; and transcription factors such as mutated p53, estrogen and progesterone receptors. Hsp90 has emerged as an important target for cancer treatment due to its essential role in maintaining transformation and regulating the function of oncogenic signaling proteins.
# The in vivo function of Hsp90 is regulated by the binding and hydrolysis of ATP at its N-terminal. Geldanamycin binds to ATP site and inhibit Hsp90 function. Geldanamycin and its analogues are under clinical trials in cancer patients.
# This domain contains the binding site for tetratricopeptide repeat (TPR) domains on HOP (Hsp Organizing Protein). TPR is a structural motif used by a significant number of cochaperones by which the in vivo function of Hsp90 is regulated. TPR2A on HOP binds specifically to MEEVD motif of the C-terminal of Hsp90.
# A homogeneous AlphaScreen is developed to assess the interaction between TPR2A and MEEVD motif of the C-terminal of Hsp90 by using the isolated TPR2A domain and a synthesized 20mer Hsp90 C terminal peptide. AlphaScreen is two bead-based proximity-dependent chemical energy transfer luminescent assay platform. TPR2A-His-6 and biotinylated Hsp90 C terminal peptide will bring streptavidin donor beads and nickel chelate acceptor beads to a proximity range (less than 200 nm), and subsequently lead a chemical luminescent reaction upon exciting donor beads with 680 nm laser. Inhibition of TPR2A and MEEVD motif interaction by small molecules could attenuate or abolish this chemical luminescent reaction.
# Counter screening: Biotinylated-His-6 (PerkinElmer) can be utilized as a counter screen, as it serves as a linker to bring streptavidin beads and nickel chelate beads together. The counter screen can exclude alpha screen platform false positives due to small molecules being metal chelators, biotin analogues and imidazole analogues, or due to interfering with oxygen release from donor beads. Such an assay should be utilized to qualify any activity observed in this screen.
# NCGC Assay Protocol Summary:
# The assay was performed on 1536-well white plate (untreated solid bottom). Liquids were dispensed by 1536-well plate washer (Kalypsys, San Diego, CA). Plates were read on EnVision (PerkinElmer, Boston, MA).TPR2A-His6 was produced using a bacteria expression system and purified using a well developed method (Ghosh et al., 2000). Hsp90 C terminal 20-mer peptide with or without an N-terminal biotin group are synthesized using automated solid phase synthesis by the Yale Keck facility. The composition of assay buffer was (in mM) 25 HEPES, 100 KCl, 2 MgCl2 and 2 DTT; 0.1% BSA and 0.01% Tween-20. TPR2A-His6 binding to biotin-Hsp90 will bring streptavidin donor beads and nickel chelate acceptor beads (PerkinElmer) together and can be measured by Alpha reading by EnVision (PerkinElmer). Free Hsp90 blocks biotin-Hsp90 binding to TPR2 and serves as a positive control in the current asssay.
# The assay was performed at room temperature. All compounds were screened as titrations from […] to 46 uM final concentration. The assay was performed in 1536-well format plates (untreated white solid bottom, Corning Inc.) as follows:
# Sequence,Parameter,Value,Description
# 1,Reagent,3 uL TPR2A-His6,Final concentration was 5nM
# 2,Compound,23 nL,Final titration was from 0.7 nM to 46 uM
# 3,Time,15 minutes,Room temperature
# 4,Reagent,1 uL biotin-Hsp90,With and without free Hsp90. Final concentration was 10 nM for biotin-Hsp90 and 10uM for free Hsp90.
# 5,Time,1 hour,Room temperature
# […]
# % is set by controls: 0 for no effect and ±100 for the full control effect; potency is the fitted concentration of half-maximal effect.
Structure (SMILES),"activity change, negative = inhibition",Potency
O=C1CCC[C@H]1C(=O)Nc1ccc2ccccc2c1,inactive: -3.59% [at 11 µM],–
CC(=O)[C@@]1(O)Cc2c(O)c3c(c(O)c2[C@H](O[C@H]2C[C@H](N)[C@H](O)[C@H](C)O2)C1)C(=O)c1ccccc1C3=O,–,"inconclusive: 31.6 µM [inhibitor, partial curve]"
COc1ccccc1-c1nc(-c2cccc(C)c2)no1,–,"inconclusive: 25.1 µM [activator, single point]"
CCN1CCN(C(=O)C(C)N(c2ccc(C)cc2)S(C)(=O)=O)CC1 (configuration not stated),inconclusive: 46.3%,–
Oc1c(CN2CCN(c3ccccn3)CC2)cc(Cl)c2cccnc12,–,active: 7.94 µM
COc1cccc(Nc2ncc3nc(-c4cc(F)cc(F)c4)c(=O)n(CCC#N)c3n2)c1,inactive: -7.99%,–
CN(O)/C=c1/ccc2c(n1)C(=O)C=CC=2,–,active: 2 µM
CC1=C(C(=O)Nc2ccccc2)C(c2ccc(C)o2)n2c(s/c(=C\c3ccco3)c2=O)=N1 (configuration not stated),inactive: -16.7%,–
CCOC(=O)c1c(NC(=O)CSc2nnc(C)s2)sc2c1CCN(C)C2,–,"inconclusive: 20 µM [inhibitor, single point]"
CCN(CC(=O)NCc1cccs1)c1ccc(S(=O)(=O)N2CCOCC2)cn1,inactive: -0.948%,–
Cc1cc(=O)n(CCc2ccccc2)c(O)c1C#N,inconclusive: 22.1%,–
CCOC(=O)CCCc1sc(N)nc1-c1[nH]c(=O)[nH]c1C,–,active: 3.98 µM
CN(C)c1ccc(C(=O)N2CC(=O)N(CCc3ccccc3)C(=O)C2)cc1,inconclusive: 39.5%,–
CCOc1cc(CNC(=O)CN2C(=O)c3ccccc3S2(=O)=O)ccc1OC,inactive: -2.69%,–
COc1ccc(C/C(O)=C(\C#N)c2nc3ccccc3s2)cc1,inactive: -2.71%,–
C[C@H](O)C(=O)Nc1c(I)c(C(=O)NC(CO)CO)c(I)c(C(=O)NC(CO)CO)c1I,inconclusive: 67% [at 26 µM],–
Cc1cnc(CNc2nc(-c3cccnc3)nc3ccccc23)cn1,inactive: -7.89%,–
CCCCNC(=O)CSc1cc(=O)n(C)c2ccccc12,inconclusive: 58%,–
N[C@H](C(=O)O)c1cc(O)cc(O)c1,inconclusive: 64.8%,–
COC(=O)c1ccc(C(NC(=O)OCc2ccccc2)/C(=C/[C@@H](C)C(=O)NCc2ccc(OC)c(OC)c2)c2cccnc2)cc1 (some centres not stated),inactive: 2.14%,–
CCCCn1c(SCC(=O)NCC2CCCO2)nc2ccc(N3CCOCC3)cc2c1=O (configuration not stated),inconclusive: 42.6%,–

Structure (SMILES),"activity change, negative = inhibition",Potency
COC(=O)[C@@]1(Cc2ccc(OC)cc2)[C@H]2c3cc(C(=O)N(C)C)n(Cc4ccc(OC)c(OC)c4)c3C[C@H]2CN1C(=O)c1ccccc1,inactive: -15%,–
O=C(NCCc1ccccc1)C1CCN(S(=O)(=O)N2CCCC2)CC1,inactive: -4.86%,–
CN(C)c1ccc(/C=N/n2ncc3ccccc32)cc1,–,active: 25.1 µM [activator]
CN(C)c1ncc2nc(-c3ccc(Cl)cc3)c(=O)n(Cc3cccs3)c2n1,inconclusive: 171%,–
Nc1nc(-c2ccc3c(c2)CCCC3)cs1,inactive: -18.3%,–
Cc1cccc(-c2cc3nc4c(c(N5CCOCC5)n3n2)CCCC4)c1,–,"inconclusive: 25.1 µM [activator, single point]"
CC1CCCC(C)N1C(=O)c1cc(F)c(F)cc1Cl (configuration not stated),inactive: -2.99%,–
CCOc1ccc(NC(=O)c2ccc(N)cc2)cc1,inactive: -3.77%,–
CCOC(=O)Cc1csc(NC(=O)CSc2nnc(Cc3csc(N)n3)n2C)n1,–,"inconclusive: 25.1 µM [inhibitor, partial curve]"
CC(C)[C@@H](CC(=O)N[C@@H]1CCNC[C@H]1C(=O)N[C@H](CC(=O)N[C@@H](CCC(=O)O)CC(=O)O)Cc1c[nH]c2ccccc12)NC(=O)C[C@H](Cc1c[nH]c2ccccc12)NC(=O)[C@@H]1CCCC[C@H]1N,inactive: -11.5%,–
NC(=O)c1sc(=S)n(-c2ccc(Br)cc2)c1N,–,"inconclusive: 31.6 µM [inhibitor, single point]"
CCOc1ccc(NC(=O)Cn2nnc(-c3ccccc3NC(=O)CC)n2)cc1,inactive: 0.411%,–
COc1ccc(-c2nc3ccccc3c(=O)n2CCCn2ccnc2)cc1,inconclusive: 65.8%,–
COc1cc(NC(=O)c2ccc(C)cc2)c(OC)cc1NC(=O)CN1CCOCC1,inactive: -7.59%,–
ON=C1/C(=N\O)CC2(C/C1=N/O)OCCO2,–,active: 12.6 µM
c1ccc2cc(NCNc3ccc4ccccc4c3)ccc2c1,inconclusive: 59.4% [at 11 µM],–
Cc1cccc(CNc2ncnc3ccc(-c4ccc(C(=O)N(C)C)cc4)cc23)c1,inconclusive: 78.9%,–
CCCS(=O)(=O)NCCc1csc(-c2cccnc2)n1,inactive: -5.66%,–
Cc1ccc([C@@H](O)c2cnc(C)n2Cc2ccccc2)cc1,inactive: -0.033% [at 11 µM],–
CN(CCCNC(=O)CN1C(=O)CC(C)(C)S(=O)(=O)c2ccccc21)C1CCCCC1,inactive: -2.54%,–
Cc1nc2ccccc2c(=O)n1/N=C/c1c(O)ccc2oc3c(c12)CCCC3,inactive: -10.2%,–

# Reprinted at random: two compounds from above.
Structure (SMILES),"activity change, negative = inhibition",Potency
CCOC(=O)CCCc1sc(N)nc1-c1[nH]c(=O)[nH]c1C,–,active: 3.98 µM
CC(=O)[C@@]1(O)Cc2c(O)c3c(c(O)c2[C@H](O[C@H]2C[C@H](N)[C@H](O)[C@H](C)O2)C1)C(=O)c1ccccc1C3=O,–,"inconclusive: 31.6 µM [inhibitor, partial curve]"
